The text below walks through data of article PMC7819943, “Rice protein-binding microarrays: a tool to detect cis-acting elements near promoter regions in rice”.

Sequences of proteins named here, by UniProt entry; tags and fusion partners are left off.
UniProt Q0JBA9, entry or part of it: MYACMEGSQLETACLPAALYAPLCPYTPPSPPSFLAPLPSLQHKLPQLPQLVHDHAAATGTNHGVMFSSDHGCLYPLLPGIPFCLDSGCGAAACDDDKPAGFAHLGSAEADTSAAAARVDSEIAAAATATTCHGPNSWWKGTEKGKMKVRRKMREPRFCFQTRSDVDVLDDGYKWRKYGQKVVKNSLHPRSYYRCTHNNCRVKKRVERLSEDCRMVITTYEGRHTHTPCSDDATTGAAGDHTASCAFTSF

The other results are listed elsewhere or left out.

This assay deals with OsWRKY34 (Oryza sativa, UniProt Q0JBA9 1-250). The experiment in a line: protein-binding microarray (RPBM); PBS, 2% BSA, 51.3 ng/ul salmon testes DNA, 50 uM zinc acetate, 200 nM TF, 25 C, 1 h; high values mean tight binding. As to conditions: protein: recombinant; tags: N-terminal polyhistidine and DsRed monomer fusion (pET32a); label: CyDye5-dUTP incorporated in the synthesized complementary strand; 3' TTTTT single-stranded linker to array surface; dsDNA, one strand shown. In outline: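 The binding signal is fluorescence intensity per array feature (arbitrary units). Readings came from an Axon 4000B scanner after a washed, 2% BSA-blocked, double-stranded custom Agilent array had been incubated for 1 h at 25 °C with 200 nM protein and 50 µM zinc acetate. The protein was a Ni–NTA-purified transcription factor fused N-terminally to polyhistidine and DsRed, expressed in E. coli BL21-CodonPlus.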
Consider “CTCTTCAGCAAAAAATTCATGTTCAGCTCGCACAAGCACACGGAGTCACCTAGTGCAG”, for which the binding signal is 8320 fluorescence intensity (a.u.).
The value for “CTGTTTTATAAGGCCACTTTTACTTCCTGTATATACTTTTCGGAGTCACCTAGTGCAG” was 8760 fluorescence intensity (a.u.).
The value for “ACCCTGTAACCCTCAAGGTCCTTAAGAAAAAAAAAACCGCCGGAGTCACCTAGTGCAG” was 9060 fluorescence intensity (a.u.); that for “GTCTTACACTCTTATCTTACTTGCTTACTCACCGAGTCAACGGAGTCACCTAGTGCAG” was 8370 fluorescence intensity (a.u.).
As to “AGTGAACTTGGTTCTGTGGTTGCATGTATTTGGTGGAGGGCGGAGTCACCTAGTGCAG”, the binding signal was 9170 fluorescence intensity (a.u.).
The same measure for “CCCCACCACGCCCGAATTTATTGCTACTCTACTACTCCTACGGAGTCACCTAGTGCAG”: 9900 fluorescence intensity (a.u.); for “GCTTTTGGAATCCCCATACTGGACGCAATTATTCGGCACACGGAGTCACCTAGTGCAG”: 9020 fluorescence intensity (a.u.).
The value for “CCTTCTTCCCCTTGCCCCATGTCGCCGGCCGCCTCCTAACCGGAGTCACCTAGTGCAG” was 11100 fluorescence intensity (a.u.); that for “GGTACAAAATATATCATATATCGTTCTTTGTTTTTTATGTCGGAGTCACCTAGTGCAG” was 8820 fluorescence intensity (a.u.).
Turning to “TCTCTCTCTCCTCGAGTCTCCATGCCGTGCTCGCGCTATTCGGAGTCACCTAGTGCAG”, the binding signal is 12400 fluorescence intensity (a.u.).
The same measure for “CTCTCTCCGTCTTTACCGTCTCTCCTTCGCCACTCCCCAGCGGAGTCACCTAGTGCAG”: 9690 fluorescence intensity (a.u.).
Consider “ACCTCATGGTCTACCTCGCCGTGGCCGGGCGCACGGCGGCCGGAGTCACCTAGTGCAG”, for which the binding signal was 8240 fluorescence intensity (a.u.).
Turning to “GTCTCCTTCCACATCTCCAATAATGGCCGCTGTCTCAATCCGGAGTCACCTAGTGCAG”, the binding signal was 12400 fluorescence intensity (a.u.).
The value for “TATTCCTCGGCTCTTCTGGCGCCAACCCTGACCTCTCACACGGAGTCACCTAGTGCAG” was 14100 fluorescence intensity (a.u.).
Take “AGGGGTTATCTGTTTGCTCTTCATTGCCACCTCTGTCATGCGGAGTCACCTAGTGCAG”: the binding signal is 9430 fluorescence intensity (a.u.).
The same measure for “ATATATTGCGCTGACCGTATGTATTGGGTATACAAAGTACCGGAGTCACCTAGTGCAG”: 8310 fluorescence intensity (a.u.).
The value for “GGATTTGTGTTGCTTCGTTATTAGATTCTAGGTCTACGCTCGGAGTCACCTAGTGCAG” was 8380 fluorescence intensity (a.u.); that for “CGATCTATATAAACCACATGCATATGCCTGATTTTTCTTCCGGAGTCACCTAGTGCAG” was 9240 fluorescence intensity (a.u.).
The value for “AAACCCATTCCCACAATCCATCCACAATTATACATAAATACGGAGTCACCTAGTGCAG” was 11600 fluorescence intensity (a.u.).
Turning to “ATTCACTTTTGGGCCTGTTCAAGGGAAACTCTTTTAATCACGGAGTCACCTAGTGCAG”, the binding signal was 8680 fluorescence intensity (a.u.).
Consider “CACTGCCCGCCCGCCCCGCGCTGCTGCCGCCGCCTCCTGGCGGAGTCACCTAGTGCAG”, for which the binding signal is 9480 fluorescence intensity (a.u.).
The same measure for “TACCTGTCTACGATTTGCCACTGACTTTATCACGTTCTACCGGAGTCACCTAGTGCAG”: 10500 fluorescence intensity (a.u.); for “CATGTGTAACCATTGCTCTTTACCCAAACAGCATTTGTCTCGGAGTCACCTAGTGCAG”: 9400 fluorescence intensity (a.u.); for “TCCCATCCCATTCCGTTGCGAAATTTTTGCGAGCTCGCGACGGAGTCACCTAGTGCAG”: 8790 fluorescence intensity (a.u.).
The value for “GTATTCCGATAAATTTTCGTTATCGTATCCGTGCCGGTTCCGGAGTCACCTAGTGCAG” was 11300 fluorescence intensity (a.u.); that for “ATTCTCATGCTACTCTTGCACAAACCCTAGCTCATATGGTCGGAGTCACCTAGTGCAG” was 12200 fluorescence intensity (a.u.).
The value for “GTACTTGTTTCTCTCTGTTTCAGTACGGTTCTGGGCCGAACGGAGTCACCTAGTGCAG” was 10100 fluorescence intensity (a.u.); that for “TGCAGTGCGGCGTCACCTATCTCGTGGGCGCTTTCTTAGACGGAGTCACCTAGTGCAG” was 9080 fluorescence intensity (a.u.).
With “AGACAAAATAAGTTTCTTACTCTTACTCTCTCAGTTTCAACGGAGTCACCTAGTGCAG”, the binding signal is 8470 fluorescence intensity (a.u.).
In the case of “ACTTGCTGACCCCTCGTCCTCGTCATCGTCCGCCCTATGTCGGAGTCACCTAGTGCAG”, the binding signal is 9960 fluorescence intensity (a.u.).
The value for “GGCAAGAACCGAAACACGTCCCTTTCATTGTGCCACACTCCGGAGTCACCTAGTGCAG” was 9380 fluorescence intensity (a.u.).
As for “TATCTTCTCTTATTTCAACGCTGTTTCCTTCTCTTTGTTTCGGAGTCACCTAGTGCAG”, the binding signal is 10400 fluorescence intensity (a.u.).
The value for “TCTTTTCTTTTCTTTTCTTTTTTCCTTTCCCATCCACTACCGGAGTCACCTAGTGCAG” was 8730 fluorescence intensity (a.u.); that for “TCTCCGCCAACCATCCCGCCACGTCAACCACCTTTCCATCCGGAGTCACCTAGTGCAG” was 11000 fluorescence intensity (a.u.); that for “CGTAGCTGTGTTTGTAGCGTAATTGCGTAAAGTCCTTTCACGGAGTCACCTAGTGCAG” was 8180 fluorescence intensity (a.u.).
The same measure for “CCACACCAATAGCACAACCGGCAAACAATTCCTCTGCTCGCGGAGTCACCTAGTGCAG”: 8510 fluorescence intensity (a.u.); for “GTTTCCCAGCACCTCTCGCTCGGTTCGTCGTCGCCCGCCCCGGAGTCACCTAGTGCAG”: 8140 fluorescence intensity (a.u.).
The same measure for “CCCTCTTGCTGTAGGGTGATCTCGTCTGTGTTCCCTTGTTCGGAGTCACCTAGTGCAG”: 12000 fluorescence intensity (a.u.); for “GTCCTCTCCCATCTTGCTTCTTCTGATTACGCGGCGAAACCGGAGTCACCTAGTGCAG”: 9560 fluorescence intensity (a.u.).
For “GAGTCGCGCACACACCTCGACTCCTCGCTCGCTTCACTCCCGGAGTCACCTAGTGCAG”, the binding signal was 9340 fluorescence intensity (a.u.).
The same measure for “TTTAATTTACCCATTGATCTAGCTCGCGATATATATGATCCGGAGTCACCTAGTGCAG”: 8640 fluorescence intensity (a.u.); for “GTTATAGATACTTTACATGCCAGATCTTCTGCTACTCACACGGAGTCACCTAGTGCAG”: 8430 fluorescence intensity (a.u.).
